# Measured values published in the supplement of paper PMC12889115.
# The list shows a part of the results. Values are raw readings; no control value is given beside them.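 In the initial screen, polymyxin B was used at a concentration that permeabilizes Salmonella's outer membrane but not its inner membrane. Maximum growth was set by DMSO wells with or without polymyxin B. Since plates varied, data were ranked per plate, and compounds giving the lowest OD600 advanced as hits.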
# Test system: Salmonella enterica serovar Typhimurium SL1344
# Test: bacterial growth OD600 after 18 h with compound and polymyxin B; higher = more bacterial growth (less inhibition)
# Conditions: 50 µM, Mueller-Hinton broth
SMILES,bacterial growth OD600 (polymyxin B 0.75 µg/mL),bacterial growth OD600 (polymyxin B 1 µg/mL)
COCc1ccc(C(=O)Nc2ccc(-c3nc(CNC(=O)c4c(F)cccc4F)c(C)o3)cc2)o1,0.713,
COc1ccccc1C1CN(CC(=O)NCC2(c3ccccc3)CCOCC2)Cc2ccccc2O1 (configuration not stated),0.006,
O=C(NCC1CC2C=CC1C21CC1)c1cc(Cc2ccc(F)cc2)no1 (configuration not stated),0.002,
CO[C@H]1[C@H](NC(=O)c2ccccn2)c2ccccc2C12CCN(C(=O)CSc1ncccn1)CC2,0.822,
Cc1cc(C)n(CCC(=O)N(Cc2ccncc2)Cc2cccc(OCCc3ccc(F)cc3)c2)n1,-0.001,
O=C(c1coc(COc2cccc(F)c2)n1)N1CC[C@@H]2CCCC[C@H]2C1,,0.043
CN(Cc1cn(C)nc1-c1cccc(Cl)c1)CC1Cc2ccccc2O1 (configuration not stated),,0.785
COCCN1C(=O)CC(CC(=O)N2CC3(C)CC2CC(C)(C)C3)(c2cccc(OC)c2)C1=O (configuration not stated),0.007,
Cc1ccoc1C(=O)N1CCC(C2CCN(CCc3ccccc3)C2)CC1 (configuration not stated),0.515,
COc1ccc(-c2n[nH]cc2CN(C)C(C)c2nccs2)c(OC)c1 (configuration not stated),,1
CN(CC1CCCCO1)C(=O)c1coc(COc2cccc(F)c2F)n1 (configuration not stated),,0.968
Cc1ccccc1C(=O)NC1CC(=O)N(Cc2ccc(F)cc2)C1 (configuration not stated),,0.789
CCOC(=O)C1(Cc2cccc(F)c2)CCN(Cc2cn(C)nc2C)CC1,,0.97
Cn1cc(CNC(=O)c2cc(COc3cccc(F)c3)[nH]n2)cn1,,0.939
Cc1ncc2c(c1CNS(=O)(=O)c1cccs1)CCN(C(=O)Cc1ccc(F)cc1Cl)C2,0.671,
COc1ccc(CN2CCNC(=O)C2CC(=O)N(C)Cc2cccnc2)c(F)c1 (configuration not stated),,0.93

SMILES,bacterial growth OD600 (polymyxin B 0.75 µg/mL),bacterial growth OD600 (polymyxin B 1 µg/mL)
COCc1ccc(C(=O)N2CCc3onc(-c4ccccc4F)c3C2)s1,0.491,
O=C(c1ccco1)N1CCC2(CCCN(Cc3ccc(F)cc3)C2=O)C1 (configuration not stated),,0.925
O=C(CCC1CCCN(Cc2ccco2)C1)Nc1ccc(C(F)(F)F)cc1 (configuration not stated),,0.85
COCCC(=O)N1CCCCC1C(=O)Nc1cccc(-c2nnc(C)s2)c1 (configuration not stated),,0.83
CC(Cn1cncn1)NC(=O)C1(N(C)Cc2ccccc2)Cc2ccccc2C1 (configuration not stated),0.581,
Cc1nc(CN(C)CC2CCCN(CCc3ccc(Cl)cc3)C2)c[nH]1 (configuration not stated),0.785,
Cc1nn(C)c(C)c1C(C)NC1CCN(c2ccc(C(=O)NCc3ccc4c(c3)OCO4)cc2)CC1 (configuration not stated),0.868,
COc1ccc(OC2CCN(C(=O)C3CC3)CC2)c(C(=O)NC(C)c2ccc(F)cc2)c1 (configuration not stated),,0.867
COc1ccc(OC2CCN(C3CCCC3)CC2)c(C(=O)NCC(C)(C)CO)c1,,0.874
Cc1nc(C)c(CC(=O)N2CCCC(CNC(=O)c3ccc(F)cc3)C2)c(O)n1 (configuration not stated),0.815,
Cc1cccc(C(=O)N2CCC(C3(c4ccccn4)NC(=O)N(CCc4cccs4)C3=O)CC2)c1 (configuration not stated),1.01,
Fc1ccccc1-c1noc(-c2ccc(N3CCc4[nH]ncc4C3)nc2)n1,,0.517
COc1cccc(-c2cnc(-c3ccncc3)nc2C2CCN(Cc3ccc(N(C)C)cc3)CC2)c1,0.646,
COc1ccc(OC2CCN(C(=O)C3CC3)CC2)c(C(=O)N(C)Cc2ccc(C)cc2)c1,,0.584
Cc1ccc(OCc2cc(C(=O)N3CCC(Cc4ccccc4)CC3)no2)cn1,,0.707
CC(C)CCN(C)c1ccc(C(=O)N2CCCN(c3ncccn3)CC2)cn1,0.573,

# Quoted at random: 2 compounds from above.
SMILES,bacterial growth OD600 (polymyxin B 0.75 µg/mL),bacterial growth OD600 (polymyxin B 1 µg/mL)
CC(C)CCN(C)c1ccc(C(=O)N2CCCN(c3ncccn3)CC2)cn1,0.573,
Cc1cc(C)n(CCC(=O)N(Cc2ccncc2)Cc2cccc(OCCc3ccc(F)cc3)c2)n1,-0.001,
